In paper doi:10.1101/2020.01.13.904904:
No constants are given. Whether binding was seen depends on the method and setting. In cells and extracts the contact can be indirect. Here binding means that the protein was enriched with, or labelled near, the bait; the list need not be complete. One block for each molecule: values may come before it.

Protein sequences, listed by entry. Tags and fused reporters are not part of them.
UniProt P70398: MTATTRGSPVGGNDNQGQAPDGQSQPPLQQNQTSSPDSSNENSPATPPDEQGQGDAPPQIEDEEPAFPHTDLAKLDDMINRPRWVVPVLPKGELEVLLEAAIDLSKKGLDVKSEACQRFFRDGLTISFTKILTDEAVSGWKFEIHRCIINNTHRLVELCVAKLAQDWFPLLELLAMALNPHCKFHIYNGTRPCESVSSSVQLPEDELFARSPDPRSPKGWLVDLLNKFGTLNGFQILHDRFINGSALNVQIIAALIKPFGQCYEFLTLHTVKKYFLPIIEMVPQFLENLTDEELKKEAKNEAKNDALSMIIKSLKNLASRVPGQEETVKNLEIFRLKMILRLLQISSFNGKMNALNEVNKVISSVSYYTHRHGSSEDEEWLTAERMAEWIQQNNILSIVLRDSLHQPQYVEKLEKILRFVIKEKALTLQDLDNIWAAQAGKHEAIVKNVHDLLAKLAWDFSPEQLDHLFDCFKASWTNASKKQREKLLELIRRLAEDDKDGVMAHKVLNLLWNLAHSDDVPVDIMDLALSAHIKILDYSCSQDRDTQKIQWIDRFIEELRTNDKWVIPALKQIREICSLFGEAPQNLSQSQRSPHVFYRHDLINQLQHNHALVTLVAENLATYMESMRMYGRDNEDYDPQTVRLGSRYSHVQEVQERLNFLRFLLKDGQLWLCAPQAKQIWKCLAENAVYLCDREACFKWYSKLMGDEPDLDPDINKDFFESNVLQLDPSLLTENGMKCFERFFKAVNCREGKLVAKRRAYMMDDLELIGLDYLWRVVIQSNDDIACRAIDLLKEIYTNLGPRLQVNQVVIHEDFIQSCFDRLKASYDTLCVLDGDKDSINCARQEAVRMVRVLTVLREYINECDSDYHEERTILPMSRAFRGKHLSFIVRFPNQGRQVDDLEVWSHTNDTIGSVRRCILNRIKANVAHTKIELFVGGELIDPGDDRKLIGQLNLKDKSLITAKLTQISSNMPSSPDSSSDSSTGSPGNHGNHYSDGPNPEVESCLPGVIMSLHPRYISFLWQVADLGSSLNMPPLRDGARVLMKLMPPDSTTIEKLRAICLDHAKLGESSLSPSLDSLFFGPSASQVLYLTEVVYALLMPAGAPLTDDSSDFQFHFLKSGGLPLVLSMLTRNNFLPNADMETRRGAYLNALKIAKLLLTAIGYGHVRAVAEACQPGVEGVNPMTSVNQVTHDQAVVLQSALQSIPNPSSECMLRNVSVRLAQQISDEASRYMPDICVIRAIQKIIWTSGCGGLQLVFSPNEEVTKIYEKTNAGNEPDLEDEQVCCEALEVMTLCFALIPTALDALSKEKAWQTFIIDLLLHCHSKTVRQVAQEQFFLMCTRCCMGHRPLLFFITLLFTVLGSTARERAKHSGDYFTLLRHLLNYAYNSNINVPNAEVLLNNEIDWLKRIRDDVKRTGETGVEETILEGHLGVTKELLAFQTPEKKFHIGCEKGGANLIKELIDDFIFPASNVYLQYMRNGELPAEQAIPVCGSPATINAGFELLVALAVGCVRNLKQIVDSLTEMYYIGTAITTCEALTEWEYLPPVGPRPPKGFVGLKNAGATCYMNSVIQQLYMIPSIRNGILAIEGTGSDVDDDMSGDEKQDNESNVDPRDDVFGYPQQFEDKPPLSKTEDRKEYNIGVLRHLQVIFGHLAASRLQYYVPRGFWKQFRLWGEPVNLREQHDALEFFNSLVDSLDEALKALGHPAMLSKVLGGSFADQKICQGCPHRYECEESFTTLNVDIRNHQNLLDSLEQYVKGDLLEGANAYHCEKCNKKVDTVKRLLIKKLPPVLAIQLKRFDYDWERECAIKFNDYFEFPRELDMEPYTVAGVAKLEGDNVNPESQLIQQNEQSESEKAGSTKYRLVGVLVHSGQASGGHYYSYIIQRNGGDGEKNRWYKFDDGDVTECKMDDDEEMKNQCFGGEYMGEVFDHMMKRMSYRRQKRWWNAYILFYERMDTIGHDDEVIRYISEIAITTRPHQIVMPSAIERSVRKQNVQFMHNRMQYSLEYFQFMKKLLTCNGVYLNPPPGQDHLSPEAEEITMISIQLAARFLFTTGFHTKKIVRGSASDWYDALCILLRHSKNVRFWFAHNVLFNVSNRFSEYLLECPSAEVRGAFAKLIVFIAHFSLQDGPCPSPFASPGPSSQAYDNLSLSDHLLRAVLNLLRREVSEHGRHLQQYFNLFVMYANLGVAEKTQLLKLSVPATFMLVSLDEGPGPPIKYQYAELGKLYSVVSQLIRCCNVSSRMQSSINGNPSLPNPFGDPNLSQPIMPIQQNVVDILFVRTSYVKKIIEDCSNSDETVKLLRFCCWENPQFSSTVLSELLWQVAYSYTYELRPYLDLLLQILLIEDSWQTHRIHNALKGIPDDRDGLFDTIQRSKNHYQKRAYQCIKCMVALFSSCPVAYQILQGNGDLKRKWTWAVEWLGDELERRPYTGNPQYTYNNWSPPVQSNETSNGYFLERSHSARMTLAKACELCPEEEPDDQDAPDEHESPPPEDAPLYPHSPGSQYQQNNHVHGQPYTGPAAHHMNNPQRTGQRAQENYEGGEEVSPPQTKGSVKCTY
UniProt Q3URU2: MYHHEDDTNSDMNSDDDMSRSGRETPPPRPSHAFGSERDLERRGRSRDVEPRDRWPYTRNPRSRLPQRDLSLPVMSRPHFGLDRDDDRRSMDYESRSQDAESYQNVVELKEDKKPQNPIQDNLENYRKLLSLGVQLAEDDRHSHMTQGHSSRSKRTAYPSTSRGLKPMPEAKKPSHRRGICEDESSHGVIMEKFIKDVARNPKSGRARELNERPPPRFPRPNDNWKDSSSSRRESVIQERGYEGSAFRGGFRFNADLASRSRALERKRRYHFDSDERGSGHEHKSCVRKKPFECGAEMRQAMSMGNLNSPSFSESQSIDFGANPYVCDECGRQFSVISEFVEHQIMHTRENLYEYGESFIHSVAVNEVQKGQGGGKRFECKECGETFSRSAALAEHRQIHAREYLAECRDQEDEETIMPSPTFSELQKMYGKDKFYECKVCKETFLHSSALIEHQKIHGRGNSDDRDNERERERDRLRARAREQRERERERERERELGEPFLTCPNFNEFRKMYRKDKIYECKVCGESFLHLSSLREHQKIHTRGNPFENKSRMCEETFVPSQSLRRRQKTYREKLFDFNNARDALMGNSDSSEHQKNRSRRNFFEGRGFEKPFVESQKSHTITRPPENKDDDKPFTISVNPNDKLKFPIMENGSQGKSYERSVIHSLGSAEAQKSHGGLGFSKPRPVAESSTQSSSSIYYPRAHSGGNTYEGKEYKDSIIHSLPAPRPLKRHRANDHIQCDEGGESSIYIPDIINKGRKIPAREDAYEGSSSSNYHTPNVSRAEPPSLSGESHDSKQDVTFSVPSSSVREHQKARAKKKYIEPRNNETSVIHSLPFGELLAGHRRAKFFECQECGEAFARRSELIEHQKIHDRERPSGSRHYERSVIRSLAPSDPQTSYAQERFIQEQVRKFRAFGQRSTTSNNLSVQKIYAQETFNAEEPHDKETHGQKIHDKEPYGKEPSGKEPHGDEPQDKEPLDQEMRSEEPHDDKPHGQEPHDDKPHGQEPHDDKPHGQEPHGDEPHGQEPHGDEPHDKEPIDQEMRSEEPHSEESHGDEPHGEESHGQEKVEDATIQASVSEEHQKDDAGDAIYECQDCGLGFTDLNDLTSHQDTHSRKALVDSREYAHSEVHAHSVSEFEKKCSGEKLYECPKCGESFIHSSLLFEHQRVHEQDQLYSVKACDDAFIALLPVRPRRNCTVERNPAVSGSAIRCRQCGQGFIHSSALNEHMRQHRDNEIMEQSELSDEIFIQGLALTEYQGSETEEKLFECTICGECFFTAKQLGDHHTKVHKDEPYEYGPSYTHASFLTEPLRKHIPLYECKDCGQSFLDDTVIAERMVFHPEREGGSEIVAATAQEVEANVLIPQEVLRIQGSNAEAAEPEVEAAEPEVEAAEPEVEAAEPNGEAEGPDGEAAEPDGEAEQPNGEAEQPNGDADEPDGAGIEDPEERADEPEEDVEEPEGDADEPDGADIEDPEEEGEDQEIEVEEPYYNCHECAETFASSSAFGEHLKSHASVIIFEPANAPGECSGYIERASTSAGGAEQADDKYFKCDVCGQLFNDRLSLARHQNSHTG
UniProt P83917: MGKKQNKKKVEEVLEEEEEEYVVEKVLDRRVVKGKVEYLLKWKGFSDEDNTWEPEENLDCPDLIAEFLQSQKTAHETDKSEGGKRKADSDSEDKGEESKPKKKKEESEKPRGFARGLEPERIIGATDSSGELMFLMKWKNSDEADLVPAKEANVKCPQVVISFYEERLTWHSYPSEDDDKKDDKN
UniProt Q8BX22: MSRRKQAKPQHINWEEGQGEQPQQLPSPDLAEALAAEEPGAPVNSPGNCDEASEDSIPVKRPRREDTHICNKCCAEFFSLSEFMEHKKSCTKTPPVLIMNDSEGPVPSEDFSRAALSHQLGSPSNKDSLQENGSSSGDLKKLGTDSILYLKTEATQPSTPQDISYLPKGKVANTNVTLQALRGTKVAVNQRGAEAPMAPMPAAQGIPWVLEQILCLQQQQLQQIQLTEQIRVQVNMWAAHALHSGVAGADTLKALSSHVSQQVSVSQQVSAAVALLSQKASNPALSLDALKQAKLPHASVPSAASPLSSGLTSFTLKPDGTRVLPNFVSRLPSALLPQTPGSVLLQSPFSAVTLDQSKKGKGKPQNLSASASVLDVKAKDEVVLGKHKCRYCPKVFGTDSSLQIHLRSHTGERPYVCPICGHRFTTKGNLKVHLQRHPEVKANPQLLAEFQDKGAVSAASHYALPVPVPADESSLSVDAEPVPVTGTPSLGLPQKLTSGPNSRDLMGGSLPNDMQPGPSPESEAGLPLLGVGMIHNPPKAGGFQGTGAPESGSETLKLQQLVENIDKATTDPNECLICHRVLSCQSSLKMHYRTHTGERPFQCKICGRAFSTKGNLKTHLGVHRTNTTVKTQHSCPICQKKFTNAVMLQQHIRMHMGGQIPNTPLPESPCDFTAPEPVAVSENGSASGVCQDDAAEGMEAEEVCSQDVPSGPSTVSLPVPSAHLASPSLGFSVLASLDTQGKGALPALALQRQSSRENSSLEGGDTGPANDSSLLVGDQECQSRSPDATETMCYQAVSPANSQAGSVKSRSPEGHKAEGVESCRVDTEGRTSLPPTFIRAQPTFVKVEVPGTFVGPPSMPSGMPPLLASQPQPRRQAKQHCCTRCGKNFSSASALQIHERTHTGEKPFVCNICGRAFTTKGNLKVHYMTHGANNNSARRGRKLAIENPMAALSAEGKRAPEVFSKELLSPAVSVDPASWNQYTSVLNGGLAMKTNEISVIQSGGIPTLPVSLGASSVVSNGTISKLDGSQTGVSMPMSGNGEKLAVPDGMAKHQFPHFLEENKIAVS

Experiments:
[1] = biological target: T1, ESRRB (mouse (endogenous in ESC)) (UniProt Q61539); assay: affinity purification with mass spectrometry
T1 sequence: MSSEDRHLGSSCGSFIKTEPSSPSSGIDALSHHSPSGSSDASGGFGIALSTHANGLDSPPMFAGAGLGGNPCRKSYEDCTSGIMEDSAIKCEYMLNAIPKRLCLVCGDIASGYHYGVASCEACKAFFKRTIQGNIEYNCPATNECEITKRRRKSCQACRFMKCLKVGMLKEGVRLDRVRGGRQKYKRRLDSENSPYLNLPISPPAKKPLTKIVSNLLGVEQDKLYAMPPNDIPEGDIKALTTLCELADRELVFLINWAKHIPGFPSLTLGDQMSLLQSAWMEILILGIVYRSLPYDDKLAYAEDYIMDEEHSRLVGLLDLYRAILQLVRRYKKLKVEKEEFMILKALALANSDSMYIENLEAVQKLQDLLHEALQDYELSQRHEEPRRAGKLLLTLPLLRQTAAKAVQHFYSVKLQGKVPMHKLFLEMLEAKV

[2] = biological target: Deubiquitinase USP9X (mouse (endogenous in ESC)) (UniProt P70398); assay: affinity purification with mass spectrometry

Molecule: Deubiquitinase USP9X (from UniProt P70398 1-2559) (enzyme)
binding [1]: binds

B1: Gag protein PEG10 (protein, UniProt Q7TN75 1-958)
chain: MAAAGGSSNCPPPPPPPPPNNNNNNNTPKSPGVPDAEDDDERRHDELPEDINNFDEDMNRQFENMNLLDQVELLAQSYSLLDHLDDFDDDDEDDDFDPEPDQDELPEYSDDDDLELQGAAAAPIPNFFSDDDCLEDLPEKFDGNPDMLGPFMYQCQLFMEKSTRDFSVDRIRVCFVTSMLIGRAARWATAKLQRCTYLMHNYTAFMMELKHVFEDPQRREAAKRKIRRLRQGPGPVVDYSNAFQMIAQDLDWTEPALMDQFQEGLNPDIRAELSRQEAPKTLAALITACIHIERRLARDAAAKPDPSPRALVMPPNSQTDPTEPVGGARMRLSKEEKERRRKMNLCLYCGNGGHFADTCPAKASKNSPPGKLPGPAVGGPSATGPERIRSPPSEASTQHLQVMLQIHMPGRPTLFVRAMIDSGASGNFIDQDFVIQNAIPLRIKDWPVMVEAIDGHPIASGPIILETHHLIVDLGDHREILSFDVTQSPFFPIVLGIRWLSTHDPHITWSTRSIVFNSDYCRLRCRMFAQIPSNLLFTVPQPNLHPYLLHHVHPHVHPHMHQHLHQHLHQFLHPDPHQYPHPDPHYHHHQQADMQHQLQQYLYQYLYYHLYPVMHHHLPPDQHEHLHEYLHQYLHQYLHQFLHHHLHPDLHQYLYQYLHNHMNPDPHHHPHPDPPQDPHHPPHQDPHQHPDPHQDPPHQDPHQDAHQDPHMDPHLHQHQHPQPQPHPQQHPNHPQQPPFFYHMAGFRIYHPVRYYYIQNVYTPVDEHVYPGHRVVDPNIEMIPGAHSLPSGHLYSMSESEMNALRNFVDRNVKDGLMTPTVAPNGAQVLQVKRGWKLQVTYNCRAPQSGTIQNQYLRMSLPNMGDPAHLASYGEFVQVPGYPYPAYVYYTSPHMMTAWYPVGRDVHGRIIVVPVVITWSQNTNRQPPVPQYPPPQPPPPPPPPPPPPPPPPASSCSAA
binding [2]: binds

Second part, the molecule after the results:

binding [2]: binds
Molecule: Gag protein PEG3 (from UniProt Q3URU2 1-1571)

binding [2]: binds
Molecule: chromatin factor CBX1 (from UniProt P83917 1-185)

binding [2]: binds
Molecule: pluripotency transcription factor SALL4 (from UniProt Q8BX22 1-1067)
